No constants are given. Whether binding was seen depends on the method and setting. Binding seen in cells or lysates may run through a third protein. For some assays here: Binding can be weak; no strength is given.

The target of assay [1] is T1, rat trefoil factor 3 (rat (endogenous in rat intestinal mucus)) (UniProt Q03191).
T1 sequence: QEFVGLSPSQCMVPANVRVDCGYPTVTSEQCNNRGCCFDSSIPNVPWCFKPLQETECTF
Nature of the assay: co-IP; non-reduced rat intestinal mucus (loose and firm layer), RIPA buffer soluble supernatant; immunoprecipitated 16 h at 4°C with anti-rTFF3, anti-rIgGFcγBP or anti-rMuc2 polyclonal serum and protein-G agarose; immunoprecipitates reduced with 100 mM DTT before SDS-PAGE and blotting; preimmune serum as control.

Assay [2] concerns the target T1, rat trefoil factor 3 (rat (endogenous in rat intestinal mucus)). Nature of the assay: co-IP; rat intestinal mucus dissolved in RIPA buffer with 100 mM DTT (reduced) before immunoprecipitation with anti-rTFF3, anti-rIgGFcγBP or anti-rMuc2 polyclonal antibodies; blotted with each antibody.
Assay [3] concerns the target rat Muc2 C-terminal domain (rat (endogenous in rat intestinal mucus)). Description: co-IP; non-reduced rat intestinal mucus (loose and firm layer), RIPA buffer soluble supernatant; immunoprecipitated 16 h at 4°C with anti-rTFF3, anti-rIgGFcγBP or anti-rMuc2 polyclonal serum and protein-G agarose; immunoprecipitates reduced with 100 mM DTT before SDS-PAGE and blotting; preimmune serum as control.

Assay [4] has as its target rat IgGFc gamma binding protein C-terminal domain (rat (endogenous in rat intestinal mucus)). The assay is described as above.
Assay [5] addresses rat Muc2 C-terminal domain (rat (endogenous in rat intestinal mucus)). Description: co-IP; rat intestinal mucus dissolved in RIPA buffer with 100 mM DTT (reduced) before immunoprecipitation with anti-rTFF3, anti-rIgGFcγBP or anti-rMuc2 polyclonal antibodies; blotted with each antibody.
Assay [6] concerns the target rat IgGFc gamma binding protein C-terminal domain (rat (endogenous in rat intestinal mucus)). Described as above.

For the molecule “rat Muc2 C-terminal domain (domain or fragment)”, the values for the binding result in assay [1] and in assay [2] were “binds” and “no binding (only mucus pretreated with 100 mM DTT)”, respectively.

Take “rat IgGFc gamma binding protein C-terminal domain (domain or fragment)”: the binding entry in assay [1] is on record as “binds”; in assay [2], “no binding (only mucus pretreated with 100 mM DTT)”.

B1: rat trefoil factor 3 (protein, UniProt Q03191 23-81)
chain: T1 sequence
B1: the binding entry is recorded as “binds” in assay [3], “binds” in assay [4], “no binding (only mucus pretreated with 100 mM DTT)” in assay [5] and “no binding (only mucus pretreated with 100 mM DTT)” in assay [6].

The values above are taken from PMC3100329.
